Measurements reported in article PMC5441866.
No constants are given. Whether binding was seen depends on the method and setting. Binding seen in cells or lysates may run through a third protein.

Protein sequences, listed by entry. Tags and fused reporters are not part of them. Residues count along the entry.
UniProt Q9NYU2, residues 43-1555: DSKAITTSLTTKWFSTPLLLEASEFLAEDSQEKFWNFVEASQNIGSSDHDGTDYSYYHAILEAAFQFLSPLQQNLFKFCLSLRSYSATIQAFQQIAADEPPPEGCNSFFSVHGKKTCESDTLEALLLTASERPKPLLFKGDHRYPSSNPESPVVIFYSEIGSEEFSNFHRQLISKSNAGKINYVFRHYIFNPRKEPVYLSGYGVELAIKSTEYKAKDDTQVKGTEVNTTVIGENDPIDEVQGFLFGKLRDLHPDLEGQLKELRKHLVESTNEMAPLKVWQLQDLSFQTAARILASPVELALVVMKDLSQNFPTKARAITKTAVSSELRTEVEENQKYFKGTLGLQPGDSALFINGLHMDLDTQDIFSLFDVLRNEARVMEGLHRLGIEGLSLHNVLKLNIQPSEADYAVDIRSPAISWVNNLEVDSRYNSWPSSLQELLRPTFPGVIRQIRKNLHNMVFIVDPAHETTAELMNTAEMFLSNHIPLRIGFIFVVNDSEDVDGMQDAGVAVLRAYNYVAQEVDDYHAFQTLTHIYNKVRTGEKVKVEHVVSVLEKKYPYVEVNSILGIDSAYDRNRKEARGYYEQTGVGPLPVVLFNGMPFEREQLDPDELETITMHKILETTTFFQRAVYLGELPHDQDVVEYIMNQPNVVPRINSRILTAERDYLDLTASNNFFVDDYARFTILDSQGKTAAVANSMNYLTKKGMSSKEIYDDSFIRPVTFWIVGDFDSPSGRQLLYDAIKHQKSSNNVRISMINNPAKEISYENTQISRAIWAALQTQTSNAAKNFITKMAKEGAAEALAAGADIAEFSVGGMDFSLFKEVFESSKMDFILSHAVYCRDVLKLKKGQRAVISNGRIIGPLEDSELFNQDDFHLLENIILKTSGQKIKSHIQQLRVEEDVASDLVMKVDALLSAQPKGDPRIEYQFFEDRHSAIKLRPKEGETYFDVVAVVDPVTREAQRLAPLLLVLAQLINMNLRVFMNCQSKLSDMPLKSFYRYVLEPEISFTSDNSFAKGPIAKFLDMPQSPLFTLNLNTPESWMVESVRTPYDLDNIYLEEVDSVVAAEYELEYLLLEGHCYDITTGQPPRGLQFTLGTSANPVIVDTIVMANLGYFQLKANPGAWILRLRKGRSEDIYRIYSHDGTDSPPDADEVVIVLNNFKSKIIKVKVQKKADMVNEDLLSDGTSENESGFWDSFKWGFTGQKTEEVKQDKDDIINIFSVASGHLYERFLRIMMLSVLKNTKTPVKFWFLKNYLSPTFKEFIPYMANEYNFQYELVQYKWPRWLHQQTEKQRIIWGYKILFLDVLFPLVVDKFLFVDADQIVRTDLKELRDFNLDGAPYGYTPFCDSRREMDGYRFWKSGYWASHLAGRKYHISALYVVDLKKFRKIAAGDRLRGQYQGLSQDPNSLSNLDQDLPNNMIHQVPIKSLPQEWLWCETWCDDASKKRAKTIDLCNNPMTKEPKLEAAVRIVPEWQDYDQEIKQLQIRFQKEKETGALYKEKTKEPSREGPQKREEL

Target: tapasin (human (endogenous in KBM-7 and HeLaM)) (UniProt O15533)
Experiment: co-IP; tapasin precipitated (Pasta1) from IFN-γ-treated KBM-7 or HeLaM, HeLaM^KO, HeLaM^KOTAPBPR^WT and HeLaM^KOTAPBPR^C94A cells (with or without shUGT1), 1% digitonin TBS with 2.5 mM CaCl2, 4°C; western blot or Cy5 total protein quantification

- binding: no binding
Substance: UDP-glucose:glycoprotein glucosyltransferase 1 (from UniProt Q9NYU2 43-1555) (enzyme)
